# Measured values as given in the supplement of paper PMC7238544.
# Counter-ions that a name gives are not always drawn. ± gives the standard deviation of the averaged measurements. The list shows a part of the results. The data scatter; read single values as rough.
# Assays:
# hAMSC donor 1 [1] = test: Hoechst total cell count ratio vs vehicle control; higher = more cells (less toxicity)
# hAMSC donor 2 [2] = test: as above
# hAMSC donor 1 [3] = test: transgenic luciferase activity (RLU/mg protein) fold change vs vehicle control (ratio); higher = more transgene expression
# hAMSC donor 2 [4] = test: as above
# hAMSC donor 1 [5] = test: transfection efficiency (EGFP+ cells / Hoechst count) fold change vs vehicle control (ratio); hAMSC are human adipose-derived mesenchymal stem cells given an EGFP-luciferase plasmid by lipofection; higher = enhanced transfection
# hAMSC donor 2 [6] = test: as above
# [7] = priming compound concentration 0.2 µM
# [8] = priming compound concentration 1.7 µM
# [9] = priming compound concentration 13 µM
SMILES,Hoechst total cell count ratio (hAMSC donor 1 [1]; [7]),Hoechst total cell count ratio (hAMSC donor 1 [1]; [8]),Hoechst total cell count ratio (hAMSC donor 1 [1]; [9]),Hoechst total cell count ratio (hAMSC donor 2 [2]; [7]),Hoechst total cell count ratio (hAMSC donor 2 [2]; [8]),Hoechst total cell count ratio (hAMSC donor 2 [2]; [9]),transgenic luciferase activity (hAMSC donor 1 [3]; [9]),transgenic luciferase activity (hAMSC donor 2 [4]; [7]),transgenic luciferase activity (hAMSC donor 2 [4]; [8]),transgenic luciferase activity (hAMSC donor 2 [4]; [9]),transfection efficiency (hAMSC donor 1 [5]; [7]),transfection efficiency (hAMSC donor 1 [5]; [8]),transfection efficiency (hAMSC donor 1 [5]; [9]),transfection efficiency (hAMSC donor 2 [6]; [7]),transfection efficiency (hAMSC donor 2 [6]; [8]),transfection efficiency (hAMSC donor 2 [6]; [9]),transgenic luciferase activity (hAMSC donor 1 [3]; [8])
CNCCC(Oc1ccc(C(F)(F)F)cc1)c1ccccc1 (stereo not given) [Fluoxetine hydrochloride],1.43 ± 0.27,1.49 ± 0.22,1.49 ± 0.032,1.13 ± 0.083,1.12 ± 0.12,1.04 ± 0.086,0.292 ± 0.068,0.969 ± 0.13,0.953 ± 0.064,0.48 ± 0.078,0.736 ± 0.17,1.3 ± 0.28,0.777 ± 0.13,1 ± 0.18,1.18 ± 0.11,0.719 ± 0.14,
Oc1c(Cl)cc(Cl)c(Cl)c1Cc1c(O)c(Cl)cc(Cl)c1Cl [Hexachlorophene],1.35 ± 0.014,1.35 ± 0.16,1.32 ± 0.12,1.07 ± 0.19,0.934 ± 0.044,1.5 ± 0.18,0.3 ± 0.13,0.754 ± 0.12,0.49 ± 0.16,0.537 ± 0.15,0.743 ± 0.026,1.14 ± 0.11,0.694 ± 0.44,0.972 ± 0.16,0.97 ± 0.13,0.438 ± 0.046,
CCOC(=O)C1=C(C)NC(C)=C(C(=O)OC)C1c1cccc(Cl)c1Cl (stereo not given) [Felodipine],1.39 ± 0.17,1.49 ± 0.072,0.997 ± 0.12,1.06 ± 0.075,0.981 ± 0.061,1.06 ± 0.033,1.49 ± 0.79,0.66 ± 0.16,0.788 ± 0.065,0.565 ± 0.38,0.785 ± 0.28,0.676 ± 0.096,1.49 ± 0.17,1 ± 0.18,1.23 ± 0.13,1.06 ± 0.087,
Nc1nc2c(ncn2COCCO)c(=O)[nH]1 [Acyclovir],1.15 ± 0.16,1.63 ± 0.18,1.39 ± 0.29,1.09 ± 0.058,1.2 ± 0.087,1.02 ± 0.13,0.562 ± 0.21,0.691 ± 0.15,0.816 ± 0.045,0.668 ± 0.13,0.836 ± 0.079,1.04 ± 0.51,0.891 ± 0.25,1.13 ± 0.12,1.01 ± 0.19,0.904 ± 0.22,
CCN1CC(CCN2CCOCC2)C(c2ccccc2)(c2ccccc2)C1=O (stereo not given) [Doxapram hydrochloride],0.957 ± 0.17,1 ± 0.13,0.995 ± 0.2,1.15 ± 0.056,1.1 ± 0.1,1.84 ± 0.56,,0.411 ± 0.25,0.442 ± 0.014,0.213 ± 0.058,1.3 ± 0.34,1.55 ± 0.75,0.914 ± 0.52,1.27 ± 0.17,1.02 ± 0.24,1.04 ± 0.13,2.12 ± 0.96
CC1(C)S[C@@H]2[C@H](/N=C/N3CCCCCC3)C(=O)N2[C@H]1C(=O)O [Mecillinam],1.31 ± 0.22,1.17 ± 0.11,1.047 ± 0.01,1.2 ± 0.36,1.04 ± 0.22,1.96 ± 0.37,,0.51 ± 0.016,0.964 ± 0.12,0.325 ± 0.14,1.05 ± 0.25,1.44 ± 0.62,1.17 ± 0.18,1.25 ± 0.32,1.32 ± 0.17,1.24 ± 0.42,2.5 ± 1.2
C[C@@H]1C[C@H]2[C@@H]3C[C@H](F)C4=CC(=O)C(Cl)=C[C@]4(C)[C@@]3(F)[C@@H](O)C[C@]2(C)[C@@]1(O)C(=O)CO [Halometasone monohydrate],1.47 ± 0.2,1.29 ± 0.14,1.1 ± 0.15,1.72 ± 0.09,1.82 ± 0.086,3.37 ± 0.31,,3.04 ± 0.38,4.42 ± 0.28,0.654 ± 0.25,1.18 ± 0.36,1.41 ± 0.6,1.46 ± 0.26,2.03 ± 0.084,1.74 ± 0.085,1.02 ± 0.02,13.8 ± 13
C#C[C@]1(O)CC[C@H]2[C@@H]3CCc4cc(O)ccc4[C@H]3CC[C@@]21C [Ethynylestradiol],1.25 ± 0.13,1.2 ± 0.18,1.07 ± 0.14,1.55 ± 0.48,1.26 ± 0.12,1.83 ± 0.35,,0.605 ± 0.054,0.493 ± 0.083,0.186 ± 0.067,1.2 ± 0.48,1.12 ± 0.49,0.879 ± 0.21,1.2 ± 0.3,0.86 ± 0.092,1.08 ± 0.34,0.946 ± 1.2
CC=CC(=O)N(CC)c1ccccc1C [Crotamiton],1.37 ± 0.26,1.09 ± 0.056,0.859 ± 0.1,1.13 ± 0.33,0.96 ± 0.2,1.11 ± 0.44,,0.44 ± 0.095,0.882 ± 0.52,0.18 ± 0.1,1.33 ± 0.37,1.36 ± 0.12,1.43 ± 0.26,0.98 ± 0.23,1.03 ± 0.056,1.1 ± 0.55,1.37 ± 0.52
CCCN(CCC)S(=O)(=O)c1ccc(C(=O)O)cc1 [Probenecid],1.28 ± 0.16,1.41 ± 0.17,1.39 ± 0.084,1.13 ± 0.018,1.06 ± 0.069,1.12 ± 0.15,0.683 ± 0.28,0.586 ± 0.011,0.879 ± 0.19,0.525 ± 0.06,0.789 ± 0.11,1.42 ± 0.15,1.09 ± 0.086,0.811 ± 0.19,1.19 ± 0.038,1.15 ± 0.24,
Clc1ccc(CO/N=C(\Cn2ccnc2)c2ccc(Cl)cc2Cl)c(Cl)c1 [Oxiconazole nitrate],1.19 ± 0.17,1.52 ± 0.25,1.27 ± 0.054,1.15 ± 0.11,1.29 ± 0.12,1.42 ± 0.12,0.646 ± 0.15,0.803 ± 0.14,,0.451 ± 0.1,1.38 ± 0.14,0.953 ± 0.072,0.686 ± 0.21,0.856 ± 0.28,0.65 ± 0.13,0.595 ± 0.09,
CN(C)CCN(Cc1ccccc1)c1ccccn1 [Tripelennamine hydrochloride],1.23 ± 0.2,0.931 ± 0.065,1.31 ± 0.3,1.42 ± 0.084,1.58 ± 0.13,1.06 ± 0.067,,,0.797 ± 0.025,0.45 ± 0.11,0.873 ± 0.077,1.46 ± 0.4,1.02 ± 0.16,0.734 ± 0.14,0.893 ± 0.049,1.16 ± 0.13,1.69 ± 0.71
CC(=O)NCCCCCCNC(C)=O [Hexamethylenebisacetamide],1.3 ± 0.16,1.47 ± 0.064,1.55 ± 0.29,1.38 ± 0.025,1.38 ± 0.047,1.2 ± 0.049,,,0.907 ± 0.097,0.903 ± 0.31,0.898 ± 0.24,1.1 ± 0.21,0.753 ± 0.017,0.82 ± 0.057,1.01 ± 0.13,1 ± 0.085,0.334 ± 0.23
C[C@H]1O[C@H](O[C@H]2[C@H](O)[C@@H](O)[C@@H](O[C@H]3[C@H](O)[C@@H](O)C(O)O[C@@H]3CO)O[C@@H]2CO)[C@H](O)[C@@H](O)[C@@H]1N[C@H]1C=C(CO)[C@@H](O)[C@H](O)[C@H]1O (stereo not given in full) [Acarbose],1.34 ± 0.12,1.23 ± 0.11,1.09 ± 0.18,1.15 ± 0.067,1.12 ± 0.18,1.11 ± 0.13,0.933 ± 0.18,0.819 ± 0.048,,0.948 ± 0.33,1.01 ± 0.16,1.05 ± 0.17,1.49 ± 0.27,1.12 ± 0.28,0.954 ± 0.046,0.968 ± 0.061,

# Compounds listed so far with nitrogen in an aromatic ring, in the order listed:
SMILES,Hoechst total cell count ratio (hAMSC donor 1 [1]; [7]),Hoechst total cell count ratio (hAMSC donor 1 [1]; [8]),Hoechst total cell count ratio (hAMSC donor 1 [1]; [9]),Hoechst total cell count ratio (hAMSC donor 2 [2]; [7]),Hoechst total cell count ratio (hAMSC donor 2 [2]; [8]),Hoechst total cell count ratio (hAMSC donor 2 [2]; [9]),transgenic luciferase activity (hAMSC donor 1 [3]; [9]),transgenic luciferase activity (hAMSC donor 2 [4]; [7]),transgenic luciferase activity (hAMSC donor 2 [4]; [8]),transgenic luciferase activity (hAMSC donor 2 [4]; [9]),transfection efficiency (hAMSC donor 1 [5]; [7]),transfection efficiency (hAMSC donor 1 [5]; [8]),transfection efficiency (hAMSC donor 1 [5]; [9]),transfection efficiency (hAMSC donor 2 [6]; [7]),transfection efficiency (hAMSC donor 2 [6]; [8]),transfection efficiency (hAMSC donor 2 [6]; [9]),transgenic luciferase activity (hAMSC donor 1 [3]; [8])
Nc1nc2c(ncn2COCCO)c(=O)[nH]1 [Acyclovir],1.15 ± 0.16,1.63 ± 0.18,1.39 ± 0.29,1.09 ± 0.058,1.2 ± 0.087,1.02 ± 0.13,0.562 ± 0.21,0.691 ± 0.15,0.816 ± 0.045,0.668 ± 0.13,0.836 ± 0.079,1.04 ± 0.51,0.891 ± 0.25,1.13 ± 0.12,1.01 ± 0.19,0.904 ± 0.22,
Clc1ccc(CO/N=C(\Cn2ccnc2)c2ccc(Cl)cc2Cl)c(Cl)c1 [Oxiconazole nitrate],1.19 ± 0.17,1.52 ± 0.25,1.27 ± 0.054,1.15 ± 0.11,1.29 ± 0.12,1.42 ± 0.12,0.646 ± 0.15,0.803 ± 0.14,,0.451 ± 0.1,1.38 ± 0.14,0.953 ± 0.072,0.686 ± 0.21,0.856 ± 0.28,0.65 ± 0.13,0.595 ± 0.09,
CN(C)CCN(Cc1ccccc1)c1ccccn1 [Tripelennamine hydrochloride],1.23 ± 0.2,0.931 ± 0.065,1.31 ± 0.3,1.42 ± 0.084,1.58 ± 0.13,1.06 ± 0.067,,,0.797 ± 0.025,0.45 ± 0.11,0.873 ± 0.077,1.46 ± 0.4,1.02 ± 0.16,0.734 ± 0.14,0.893 ± 0.049,1.16 ± 0.13,1.69 ± 0.71
